Reference: PubChem BioAssay AID652259 (Drosophila RNAi Screening Center, 2013)
In all, the deposit lists about 22,000 reagents; shown is an unselected part of those with a known target gene and a result. In the full data, 233 (1.1%) were called active. 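Light values are raw, unnormalised plate reads; the ratio scores behind the reporter calls were not deposited.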 Unmarked entries are inactive. Reagents against one gene are numbered here. A plus sign joins genes that one reagent is predicted to hit. Not stated in the record: the amount of reagent, the time to read-out, the dose of the treatment.

Purpose: 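Identify new Wingless signalling regulators in fly cells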 (primary screen)
Cells: Drosophila clone 8 imaginal disc epithelial cells
Reagent: long dsRNA against Drosophila genes
Conditions: pathway stimulated by co-transfected Wingless expression plasmid
Measured: 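Dual luciferase reads per well after Wingless plasmid stimulation: reporter firefly light and Renilla control light; activity is firefly divided by Renilla, a ratio not deposited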
Scale: firefly reporter light: higher = more Wg reporter light, before normalisation; Renilla control light: higher = more transfected or surviving cells
Rule for the call: 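a knock-down is a candidate when at least two out of four statistical tests show it departing from its plate mean; one test alone signals a weak candidate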
Calls: active = candidate regulator (raises or lowers reporter); inactive = not a candidate

target gene | reagent no. | reporter change call, replicate 1 | firefly reporter light, replicate 1 | firefly reporter light, replicate 2 | Renilla control light, replicate 1 | Renilla control light, replicate 2
scra (scraps) | 1 | – | 9324 | – | 1116 | –
CG4866 | 1 | – | 5680 | – | 2922 | –
Jhbp16 (Juvenile hormone binding protein 16) | 1 | – | 35016 | – | 5868 | –
Mtmr6 (Myotubularin related protein 6) | 1 | – | 2887 | 6579 | 713 | 2375
CG31643 | 1 | – | 14533 | – | 7549 | –
nis | 1 | – | 8628 | – | 4640 | –
CG15027 | 1 | – | 18112 | – | 11258 | –
CG33232 (retired record) | 1 | – | 12001 | – | 2884 | –
CG33232 (retired record) | 2 | – | 6410 | – | 2450 | –
Dip-B (Dipeptidase B) | 1 | – | 4592 | – | 1408 | –
CG14292 | 1 | – | 11696 | – | 1900 | –
CngA (Cyclic nucleotide-gated ion channel subunit A) | 1 | Wg reporter activity lowered (active) | 1684 | – | 1442 | –
CngA (Cyclic nucleotide-gated ion channel subunit A) | 2 | – | 8305 | – | 2362 | –
CG14126 (retired record) | 1 | – | 4865 | – | 2544 | –
CG7011 + Prp31 | 1 | – | 8564 | – | 3539 | –
Akt (Akt kinase) | 1 | – | 1748 | 4064 | 437 | 1261
CG31559 | 1 | – | 15173 | – | 3513 | –
CG31559 | 2 | – | 12548 | – | 3175 | –
CG8607 | 1 | – | 857 | 7072 | 552 | 3127
CG17047 | 1 | Wg reporter activity raised | 6265 | – | 3516 | –
CG1902 | 1 | – | 8659 | – | 2664 | –
tsg (twisted gastrulation) | 1 | – | 18513 | – | 8277 | –
Amy-d (Amylase distal) | 1 | – | 7956 | – | 2716 | –
CG8738 | 1 | – | 4113 | 4912 | 1149 | 3028
bam (bag of marbles) | 1 | – | 18626 | – | 16180 | –
Sid (Stress induced DNase) | 1 | – | 8212 | – | 2524 | –
TfIIA-L (Transcription factor IIA L) | 1 | Wg reporter activity lowered | 741 | 2347 | 790 | 1526
CG5217 | 1 | – | 10620 | – | 3709 | –
Rbf2 (Retinoblastoma-family protein 2) | 1 | – | 19338 | – | 4730 | –
Or19a (Odorant receptor 19a) | 1 | – | 16759 | – | 13436 | –
CG34169 | 1 | – | 22546 | – | 10000 | –
Marf (Mitochondrial assembly regulatory factor) | 1 | – | 2352 | 7290 | 480 | 1841
Notum | 1 | – | 7477 | – | 3037 | –
slbo (slow border cells) | 1 | – | 3853 | 11232 | 918 | 3162
ball (ballchen) | 1 | – | 5013 | – | 1228 | –
CG32195 | 1 | – | 2746 | – | 1468 | –
Srp19 (Signal recognition particle 19) | 1 | – | 2456 | 7000 | 1353 | 4032
CG9970 | 1 | – | 3664 | – | 2224 | –
Tg (Transglutaminase) | 1 | – | 2267 | 6662 | 624 | 3339
CG4645 | 1 | – | 2795 | 6336 | 802 | 1832
Nf-YB (Nuclear factor Y-box B) | 1 | – | 2067 | 8176 | 688 | 3068
CG12659 | 1 | – | 23290 | – | 10086 | –
CG31436 | 1 | – | 20454 | – | 14008 | –
CG42807 | 1 | – | 8416 | – | 2648 | –
CG7377 | 1 | – | 8397 | – | 2344 | –
sinu (sinuous) | 1 | – | 4921 | – | 1498 | –
CG11878 | 1 | – | 12707 | – | 10787 | –
CG33308 | 1 | – | 15462 | – | 6547 | –
BomBc1 (Bomanin Bicipital 1) | 1 | – | 7856 | – | 2469 | –
POSH (Plenty of SH3s) | 1 | – | 9776 | – | 3161 | –
Snap25 (Synaptosomal-associated protein 25kDa) | 1 | – | 20760 | – | 1619 | –
Cpr92A (Cuticular protein 92A) | 1 | – | 22033 | – | 6307 | –
alphaTub84D (alpha-Tubulin at 84D) | 1 | – | 17431 | – | 2848 | –
beat-Va (beaten path Va) | 1 | – | 16691 | – | 5376 | –
CG4612 | 1 | – | 6748 | – | 2154 | –
Tsp42Ea (Tetraspanin 42Ea) | 1 | – | 3424 | 7728 | 777 | 2827
Tsp42Ea (Tetraspanin 42Ea) | 2 | – | 2535 | 9299 | 738 | 3136
CG17707 | 1 | – | 12888 | – | 7815 | –
CG42656 | 1 | – | 3917 | – | 770 | –
lok (loki) | 1 | – | 7264 | – | 2928 | –
CG6432 | 1 | – | 3132 | 4050 | 1664 | 1312
Polr1F (RNA polymerase I subunit F) | 1 | – | 8850 | – | 3971 | –
CG14105 | 1 | – | 5189 | – | 2248 | –
Prdm13 (PR/SET domain 13) | 1 | – | 2198 | 11988 | 1536 | 4352
sp3 (spermathreecae) | 1 | – | 32199 | – | 6388 | –
Ugt303A1 (UDP-glycosyltransferase family 303 member A1) | 1 | – | 16824 | – | 4360 | –
Abca3 (ATP binding cassette subfamily A member 3) | 1 | – | 32640 | – | 14493 | –
PGRP-LD + Pmi | 1 | – | 4352 | – | 1856 | –
PGRP-LD + Pmi | 2 | – | 2642 | 9655 | 2551 | 4744
fh (frataxin) | 1 | – | 13972 | – | 9864 | –
CG6340 | 1 | – | 40204 | – | 8962 | –
CG13996 | 1 | – | 2513 | 6905 | 736 | 2485
DMAP1 (DNA methyltransferase 1 associated protein 1) | 1 | Wg reporter activity raised (active) | 53760 | – | 2876 | –

A stretch taken from the entries so far, as a working copy:
target gene | reagent no. | reporter change call, replicate 1 | firefly reporter light, replicate 1 | firefly reporter light, replicate 2 | Renilla control light, replicate 1 | Renilla control light, replicate 2
CG7377 | 1 | – | 8397 | – | 2344 | –
sinu (sinuous) | 1 | – | 4921 | – | 1498 | –
CG11878 | 1 | – | 12707 | – | 10787 | –
CG33308 | 1 | – | 15462 | – | 6547 | –
BomBc1 (Bomanin Bicipital 1) | 1 | – | 7856 | – | 2469 | –
POSH (Plenty of SH3s) | 1 | – | 9776 | – | 3161 | –
Snap25 (Synaptosomal-associated protein 25kDa) | 1 | – | 20760 | – | 1619 | –
Cpr92A (Cuticular protein 92A) | 1 | – | 22033 | – | 6307 | –
alphaTub84D (alpha-Tubulin at 84D) | 1 | – | 17431 | – | 2848 | –
